The labels stand for the following.
B1: ICLN (protein, UniProt Q9LVA7 1-229)
chain: MVAGLRDFTLRTEDGSGKPVLDESNGEELMHVQTSVAVALGNRPIESPGTLYITSRKLIWLSDVDMAKGYAVDFLSISLHAVSRDPEAYSSPCIYTQIEVEEDEDDESDSESTEVLDLSKIREMRLVPSDSTQLETLFDVFCECAELNPEPVQEEEEESGHNWVFSADQMDVRGGDDDAEWQISQSPTSVIGHSNGDEGLNQPMLELQINDQRFEDAEEMVHESETKDH
B2: cystatin protease inhibitor CYS1 (protein, UniProt Q945Q1 1-101)
chain: MADQQAGTIVGGVRDIDANANDLQVESLARFAVDEHNKNENLTLEYKRLLGAKTQVVAGTMHHLTVEVADGETNKVYEAKVLEKAWENLKQLESFNHLHDV
B3: AT4G18465, DEAH box RNA helicase with best homology to human DHX35 (protein, UniProt F4JRJ6 1-695)
chain: MAFWKPGTEKPRFEEDGEGGIVFMSNNLASSSSSSYGYANIEKQRQRLPVYKYRTEILYLVENHATTIIVGETGSGKTTQIPQYLKEAGWAEGGRVIACTQPRRLAVQAVSARVAEEMGVNLGEEVGYTIRFEDHTTSGVTSVKFLTDGVLIREMMEDPLLTKYSVIMIDEAHERSISTDILLGLLKKIQRRRPELRLIISSATIEAKTMSNFFNSSKKRHAPEGSTPGPKLEPAILSVEGRGFSVKIHYVEEPVSDYIRSVVSTILLINEREPPGDVLVFLTGQEDIETAIKLLEEEAHSNQKNSSGLLPLPLYSGLSRSEQELIFTPTPRGKRKVILSTNIAETSLTLEGVVYVIDSGFSKQKFYNPISDIESLVVAPISKASARQRSGRAGRVRPGKCYRLYTEDYFLNQMPGEGIPEMQRSNLVSTVIQLKALGIDNILGFDWPAPPSSEAMIRALEVLYSLQILDDDAKLTSPTGFQVAELPLDPMISKMILASSELGCSHEIITIAAVLSVQSVWIIARGVQKEQDEAKLRFAAAEGDHVTFLNVYKGFLESKKPTQWCYKNFLNYQSMKKVVEIRDQLKRIARRLGITLKSCDGDMEAVRKAVTAGFFANACRLEPHSNGVYKTIRGSEEVYIHPSSVLFRVNPKWVVYQSIVSTERQYMRNVVTINPSWLTEVAPHFYQNRQNAMSF
B4: cystatin protease inhibitor CYS6 (protein, UniProt Q8H0X6 25-234)
chain: SDLGFCNEEMALVGGVGDVPANQNSGEVESLARFAVDEHNKKENALLEFARVVKAKEQVVAGTLHHLTLEILEAGQKKLYEAKVWVKPWLNFKELQEFKPASDAPAITSSDLGCKQGEHESGWREVPGDDPEVKHVAEQAVKTIQQRSNSLFPYELLEVVHAKAEVTGEAAKYNMLLKLKRGEKEEKFKVEVHKNHEGALHLNHAEQHHD
B5: cystatin protease inhibitor CYS4 (protein, UniProt Q84WT8 23-117)
chain: LGGGGGLGSRKPIKNVSDPDVVAVAKYAIEEHNKESKEKLVFVKVVEGTTQVVSGTKYDLKIAAKDGGGKIKNYEAVVVEKLWLHSKSLESFKAL

Results are given in words; binding and its absence hold for the method and conditions named. Binding seen in cells or lysates may run through a third protein. A yes stands for co-enrichment or nearness to the bait. Other partners may have been found.

The text below walks through data of article doi:10.1101/2022.04.12.488072.

For this test, the target named is SME1 fused to a GS^rhino TAP tag (Arabidopsis thaliana). Put plainly: affinity purification with mass spectrometry.
As to B1, the binding entry is “binds”.

Take B2: the binding result is recorded as “binds”.

On to B3, for which the binding entry is listed as “binds”.

On to B4, for which the binding result is reported as “binds”.

Turning to B5, the binding entry was “binds”.
